# Measurements: the supplement of paper PMC6411743
# ± gives the standard deviation of the averaged measurements. The entries are a selection whose mix differs from that of the whole data set.
# Key:
# Test in all cases: NP40-soluble protein abundance relative to vehicle (solubility fold change) (ratio); higher = more soluble protein in presence of AMP-PNP
# [1] = target: T1, A6NMH8 and related entries (UniProt P60033)
# T1 sequence (whole entry): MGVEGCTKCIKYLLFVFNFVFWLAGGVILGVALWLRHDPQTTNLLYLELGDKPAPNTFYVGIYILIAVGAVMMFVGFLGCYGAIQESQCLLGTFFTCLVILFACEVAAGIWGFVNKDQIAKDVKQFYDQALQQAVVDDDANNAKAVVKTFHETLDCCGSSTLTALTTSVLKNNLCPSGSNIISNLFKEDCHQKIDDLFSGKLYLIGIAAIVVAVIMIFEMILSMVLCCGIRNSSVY
# How it was run: (§1)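 Jurkat crude lysate prepared with a Dounce homogeniser was treated at eight concentrations spanning 0.1 to 10 mM, 10 min at room temperature then 3 min at 37 °C. Solubilisation with 0.8% NP40 and benzonase and ultracentrifugation preceded TMT labelling of the supernatant for LC-MS/MS. Fold change against the detergent-processed vehicle was determined per replicate from vsn-normalised intensities, across three independent experiments.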
# [2] = target: T2, A8K878 and related entries (UniProt P55145)
# T2 sequence (whole entry): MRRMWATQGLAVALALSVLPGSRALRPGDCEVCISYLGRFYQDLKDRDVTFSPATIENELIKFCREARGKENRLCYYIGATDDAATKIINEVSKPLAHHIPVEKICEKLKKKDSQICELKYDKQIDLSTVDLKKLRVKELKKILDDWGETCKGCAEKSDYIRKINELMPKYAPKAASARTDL
# How it was run: as §1
# [3] = target: T3, B1AKJ5 and related entries (UniProt O43847)
# T3 sequence (whole entry): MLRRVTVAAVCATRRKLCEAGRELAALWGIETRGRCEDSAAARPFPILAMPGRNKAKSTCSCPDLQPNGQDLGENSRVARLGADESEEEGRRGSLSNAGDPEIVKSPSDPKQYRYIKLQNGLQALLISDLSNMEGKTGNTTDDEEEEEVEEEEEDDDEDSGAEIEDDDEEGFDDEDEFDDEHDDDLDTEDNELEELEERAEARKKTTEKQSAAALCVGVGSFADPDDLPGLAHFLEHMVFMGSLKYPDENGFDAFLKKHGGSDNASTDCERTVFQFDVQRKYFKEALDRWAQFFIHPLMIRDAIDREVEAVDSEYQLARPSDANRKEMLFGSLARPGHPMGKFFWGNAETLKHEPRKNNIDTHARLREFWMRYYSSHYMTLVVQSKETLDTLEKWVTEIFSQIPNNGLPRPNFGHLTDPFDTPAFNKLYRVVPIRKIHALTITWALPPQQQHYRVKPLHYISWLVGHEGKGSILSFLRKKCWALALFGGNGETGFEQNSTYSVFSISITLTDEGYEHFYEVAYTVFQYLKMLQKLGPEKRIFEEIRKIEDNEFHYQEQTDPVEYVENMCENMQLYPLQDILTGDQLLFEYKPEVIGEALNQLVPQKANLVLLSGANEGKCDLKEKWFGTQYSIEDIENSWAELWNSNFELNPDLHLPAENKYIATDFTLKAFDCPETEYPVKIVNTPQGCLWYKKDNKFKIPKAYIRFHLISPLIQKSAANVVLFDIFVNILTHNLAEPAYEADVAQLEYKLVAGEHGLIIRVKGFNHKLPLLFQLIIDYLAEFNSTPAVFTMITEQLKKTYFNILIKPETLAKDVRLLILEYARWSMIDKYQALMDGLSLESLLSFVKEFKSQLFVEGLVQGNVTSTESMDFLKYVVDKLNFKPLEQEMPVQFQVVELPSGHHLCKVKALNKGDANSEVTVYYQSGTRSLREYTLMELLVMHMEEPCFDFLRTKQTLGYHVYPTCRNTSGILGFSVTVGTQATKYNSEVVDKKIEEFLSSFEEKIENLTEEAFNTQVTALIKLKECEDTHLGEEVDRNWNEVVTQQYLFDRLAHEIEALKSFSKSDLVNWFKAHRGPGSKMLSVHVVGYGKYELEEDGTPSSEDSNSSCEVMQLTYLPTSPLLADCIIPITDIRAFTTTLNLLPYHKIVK
# How it was run: as §1
# [4] = target: T4, B4DH95 and related entries (UniProt Q6P9H5)
# T4 sequence (whole entry): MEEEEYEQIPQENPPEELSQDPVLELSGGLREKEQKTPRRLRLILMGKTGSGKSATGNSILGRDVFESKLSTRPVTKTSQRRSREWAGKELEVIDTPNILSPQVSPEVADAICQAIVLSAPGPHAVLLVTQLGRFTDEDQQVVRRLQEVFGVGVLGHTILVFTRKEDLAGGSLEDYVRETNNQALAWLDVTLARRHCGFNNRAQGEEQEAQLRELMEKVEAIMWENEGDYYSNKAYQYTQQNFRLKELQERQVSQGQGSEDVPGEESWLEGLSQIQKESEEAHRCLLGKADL
# How it was run: as §1
# [5] = target: T5, B4DI03 and related entries (UniProt Q9BY50)
# T5 sequence (whole entry): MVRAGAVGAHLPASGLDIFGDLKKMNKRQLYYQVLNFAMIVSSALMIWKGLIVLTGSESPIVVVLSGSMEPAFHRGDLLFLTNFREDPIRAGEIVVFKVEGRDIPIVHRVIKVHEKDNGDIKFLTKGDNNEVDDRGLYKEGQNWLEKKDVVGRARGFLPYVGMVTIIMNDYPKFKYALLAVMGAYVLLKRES
# How it was run: as §1
# [6] = target: T6, B4DZG1 and related entries (UniProt Q9Y483)
# T6 sequence (whole entry): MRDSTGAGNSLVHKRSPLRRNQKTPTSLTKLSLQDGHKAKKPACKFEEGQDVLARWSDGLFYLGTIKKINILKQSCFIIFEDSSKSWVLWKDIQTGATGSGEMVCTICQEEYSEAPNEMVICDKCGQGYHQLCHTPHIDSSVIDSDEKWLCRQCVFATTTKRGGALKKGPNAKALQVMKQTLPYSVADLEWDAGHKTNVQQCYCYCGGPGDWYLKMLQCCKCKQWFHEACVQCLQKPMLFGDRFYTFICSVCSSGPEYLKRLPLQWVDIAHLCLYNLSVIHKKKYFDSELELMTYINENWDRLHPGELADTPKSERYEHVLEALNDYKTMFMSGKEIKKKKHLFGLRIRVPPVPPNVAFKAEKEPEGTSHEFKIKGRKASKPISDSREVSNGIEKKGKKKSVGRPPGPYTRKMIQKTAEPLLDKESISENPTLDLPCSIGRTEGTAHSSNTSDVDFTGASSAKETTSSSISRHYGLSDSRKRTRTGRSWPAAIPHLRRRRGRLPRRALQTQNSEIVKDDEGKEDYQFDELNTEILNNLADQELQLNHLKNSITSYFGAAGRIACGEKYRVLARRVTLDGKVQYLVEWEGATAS
# How it was run: as §1
# B5MCQ4 = target: T7, B5MCQ4 (UniProt Q9BY27)
# T7 sequence (whole entry): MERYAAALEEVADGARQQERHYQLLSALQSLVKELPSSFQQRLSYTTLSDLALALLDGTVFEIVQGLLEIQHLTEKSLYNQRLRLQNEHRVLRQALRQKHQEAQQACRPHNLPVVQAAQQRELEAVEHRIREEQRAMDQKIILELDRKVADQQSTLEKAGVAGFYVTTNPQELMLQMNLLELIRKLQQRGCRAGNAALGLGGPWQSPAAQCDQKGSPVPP
# How it was run: as §1
# [7] = target: T8, B7WPL9 and related entries (UniProt Q6PFW1)
# T8 sequence (whole entry): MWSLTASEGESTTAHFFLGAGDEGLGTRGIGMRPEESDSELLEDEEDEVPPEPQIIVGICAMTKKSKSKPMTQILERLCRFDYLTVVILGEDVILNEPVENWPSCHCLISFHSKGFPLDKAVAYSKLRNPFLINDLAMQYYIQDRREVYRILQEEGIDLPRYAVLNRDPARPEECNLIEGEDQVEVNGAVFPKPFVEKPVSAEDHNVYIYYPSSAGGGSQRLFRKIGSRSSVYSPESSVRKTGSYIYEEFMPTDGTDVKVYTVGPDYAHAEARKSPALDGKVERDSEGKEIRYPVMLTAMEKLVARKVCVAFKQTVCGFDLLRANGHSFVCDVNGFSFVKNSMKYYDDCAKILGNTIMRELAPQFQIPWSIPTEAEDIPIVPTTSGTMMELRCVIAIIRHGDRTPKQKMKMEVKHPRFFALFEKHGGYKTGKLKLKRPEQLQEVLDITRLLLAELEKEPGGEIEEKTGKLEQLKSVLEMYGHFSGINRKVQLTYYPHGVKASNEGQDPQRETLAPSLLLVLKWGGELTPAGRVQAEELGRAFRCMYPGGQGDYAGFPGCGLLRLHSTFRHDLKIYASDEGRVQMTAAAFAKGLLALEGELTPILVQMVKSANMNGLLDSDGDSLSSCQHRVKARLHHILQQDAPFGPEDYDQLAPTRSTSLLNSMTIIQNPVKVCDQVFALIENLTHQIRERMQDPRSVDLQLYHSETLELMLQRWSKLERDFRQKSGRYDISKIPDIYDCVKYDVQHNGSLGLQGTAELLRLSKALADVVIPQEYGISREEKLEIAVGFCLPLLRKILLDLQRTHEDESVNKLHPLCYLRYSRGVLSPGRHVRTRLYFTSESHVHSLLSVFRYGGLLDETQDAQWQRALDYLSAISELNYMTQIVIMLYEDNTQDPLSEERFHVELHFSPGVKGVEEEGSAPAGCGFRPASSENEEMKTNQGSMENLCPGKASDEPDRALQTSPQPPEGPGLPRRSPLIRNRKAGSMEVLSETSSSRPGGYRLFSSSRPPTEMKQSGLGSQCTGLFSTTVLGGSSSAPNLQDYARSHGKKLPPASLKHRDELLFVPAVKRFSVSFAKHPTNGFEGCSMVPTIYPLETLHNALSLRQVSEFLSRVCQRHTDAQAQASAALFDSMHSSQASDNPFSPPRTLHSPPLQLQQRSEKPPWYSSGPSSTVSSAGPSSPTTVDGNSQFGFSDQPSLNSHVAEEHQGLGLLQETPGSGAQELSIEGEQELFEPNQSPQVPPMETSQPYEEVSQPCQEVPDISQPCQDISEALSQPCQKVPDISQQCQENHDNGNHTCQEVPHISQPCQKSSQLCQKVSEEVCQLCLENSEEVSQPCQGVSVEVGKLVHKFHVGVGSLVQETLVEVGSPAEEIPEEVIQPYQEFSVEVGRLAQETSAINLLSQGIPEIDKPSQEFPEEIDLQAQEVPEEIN
# How it was run: as §1
structure (smiles),measurement,setting,value
Nc1ncnc2c1ncn2[C@@H]1O[C@H](COP(=O)(O)OP(=O)(O)NP(=O)(O)O)[C@@H](O)[C@H]1O [adenylyl imidodiphosphate],NP40-soluble protein abundance,[1]; concentration: 1mM,0.988 ± 0.032
same,NP40-soluble protein abundance,[1]; concentration: 2mM,0.985 ± 0.02
same,NP40-soluble protein abundance,[1]; concentration: 4mM,0.971 ± 0.043
same,NP40-soluble protein abundance,[1]; concentration: 6mM,0.964 ± 0.012
same,NP40-soluble protein abundance,[1]; concentration: 8mM,0.982 ± 0.015
same,NP40-soluble protein abundance,[1]; concentration: 10mM,0.939 ± 0.03
same,NP40-soluble protein abundance,[2]; concentration: 1mM,0.971 ± 0.057
same,NP40-soluble protein abundance,[2]; concentration: 2mM,1.05 ± 0.064
same,NP40-soluble protein abundance,[2]; concentration: 4mM,0.932 ± 0.076
same,NP40-soluble protein abundance,[2]; concentration: 6mM,0.942 ± 0.046
same,NP40-soluble protein abundance,[2]; concentration: 8mM,0.919 ± 0.022
same,NP40-soluble protein abundance,[2]; concentration: 10mM,0.889 ± 0.087
same,NP40-soluble protein abundance,[3]; concentration: 1mM,1 ± 0.016
same,NP40-soluble protein abundance,[3]; concentration: 2mM,0.972 ± 0.013
same,NP40-soluble protein abundance,[3]; concentration: 4mM,0.9652 ± 0.0017
same,NP40-soluble protein abundance,[3]; concentration: 6mM,0.978 ± 0.014
same,NP40-soluble protein abundance,[3]; concentration: 8mM,0.9862 ± 0.0089
same,NP40-soluble protein abundance,[3]; concentration: 10mM,0.966 ± 0.051
same,NP40-soluble protein abundance,[4]; concentration: 1mM,0.982 ± 0.023
same,NP40-soluble protein abundance,[4]; concentration: 2mM,0.941 ± 0.031
same,NP40-soluble protein abundance,[4]; concentration: 4mM,0.991 ± 0.026
same,NP40-soluble protein abundance,[4]; concentration: 6mM,1.01 ± 0.069
same,NP40-soluble protein abundance,[4]; concentration: 8mM,1.03 ± 0.052
same,NP40-soluble protein abundance,[4]; concentration: 10mM,0.994 ± 0.035
same,NP40-soluble protein abundance,[5]; concentration: 1mM,0.973 ± 0.031
same,NP40-soluble protein abundance,[5]; concentration: 2mM,1.02 ± 0.051
same,NP40-soluble protein abundance,[5]; concentration: 4mM,0.965 ± 0.042
same,NP40-soluble protein abundance,[5]; concentration: 6mM,0.952 ± 0.02
same,NP40-soluble protein abundance,[5]; concentration: 8mM,0.946 ± 0.031
same,NP40-soluble protein abundance,[5]; concentration: 10mM,0.949 ± 0.046
same,NP40-soluble protein abundance,[6]; concentration: 1mM,0.992 ± 0.027
same,NP40-soluble protein abundance,[6]; concentration: 2mM,1.11 ± 0.14
same,NP40-soluble protein abundance,[6]; concentration: 4mM,1.08 ± 0.046
same,NP40-soluble protein abundance,[6]; concentration: 6mM,1.13 ± 0.049
same,NP40-soluble protein abundance,[6]; concentration: 8mM,1.14 ± 0.096
same,NP40-soluble protein abundance,[6]; concentration: 10mM,1.28 ± 0.15
same,NP40-soluble protein abundance,B5MCQ4; concentration: 1mM,0.977 ± 0.025
same,NP40-soluble protein abundance,B5MCQ4; concentration: 2mM,0.9829 ± 0.0095
same,NP40-soluble protein abundance,B5MCQ4; concentration: 4mM,0.967 ± 0.037
same,NP40-soluble protein abundance,B5MCQ4; concentration: 6mM,0.972 ± 0.03
same,NP40-soluble protein abundance,B5MCQ4; concentration: 8mM,0.988 ± 0.053
same,NP40-soluble protein abundance,B5MCQ4; concentration: 10mM,0.974 ± 0.057
same,NP40-soluble protein abundance,[7]; concentration: 1mM,0.997 ± 0.016
same,NP40-soluble protein abundance,[7]; concentration: 2mM,1.04 ± 0.013
same,NP40-soluble protein abundance,[7]; concentration: 4mM,1.02 ± 0.028

# A different layout for some results above:
structure (smiles)	measurement	setting	value
Nc1ncnc2c1ncn2[C@@H]1O[C@H](COP(=O)(O)OP(=O)(O)NP(=O)(O)O)[C@@H](O)[C@H]1O [adenylyl imidodiphosphate]	NP40-soluble protein abundance	[4]; concentration: 6mM	1.01 ± 0.069
same	NP40-soluble protein abundance	[6]; concentration: 1mM	0.992 ± 0.027
